# This is one part of the list.
# Test system: T1, CTL2-GFP (C. trachomatis L2/434/Bu, GFP-expressing)
# T1 construct: L2/434/Bu, GFP-expressing
# Set-up: species or system HeLa; Intracellular C. trachomatis growth in HeLa cells, bulk GFP fluorescence relative to DMSO
# Conditions: bulk GFP, single well; 28.5 h, 10 µM; inhibitor
row,SMILES,% of control remaining
1,Cc1cc(C(=O)NC(C)Cn2nc(C)cc2C)c2cccc(C)c2n1 (stereo not shown) [CBK281635],120.929%
2,Cc1ccc(C(=O)NCc2ccco2)c(NCc2cccnc2)n1 [CBK076383],192.119%
3,OC1(CN2CCCC2)COCCN(c2nnc(-c3ccccc3)s2)C1 (stereo not shown) [CBK306558],129.358%
4,CC(C)c1ccc(N2C(=O)[C@@H]3C[C@@H](NC(=O)c4cccs4)CCN3C2=O)cc1 [CBK289541],113.719%
5,FC(F)(F)c1cccc(-c2nccnc2NCc2cccs2)c1 [CBK037298],116.956%
6,Cc1nn(C)cc1-c1c(C#N)c(N)nc2c1CN(Cc1ccco1)CC2 [CBK306722],141.488%
7,CCOc1ccc(N2C(=O)CC(NC3CCN(c4ncccn4)CC3)C2=O)cc1 (stereo not shown) [CBK269972],103.46%
8,COCCNc1nc(-c2ccccc2CO)cnc1N [CBK063575],128.214%
9,CC12CN3CC(C)(CN(C1)C3c1ccc(Br)cc1)C2=O (stereo not shown) [CBK261452],125.491%
10,Cn1cnnc1SCCNC(=O)N1CCc2sccc2C1 [CBK307385],143.819%
11,CC(C)COC(=O)CCNc1n[nH]c(=O)[nH]c1=O [CBK293920],127.394%
12,Cc1c(C(=O)O)sc(S(=O)(=O)N2CCN(C(=O)CC(C)c3ccccc3)CC2)c1C(=O)O (stereo not shown) [CBK297143],140.518%
13,Cc1n[nH]c(C)c1CCC(=O)N/N=C/c1cccc(O)c1 [CBK262910],138.231%
14,CC(C)c1csc(C2CCN(C(=O)CCc3ccsc3)CC2)n1 [CBK305327],107.664%
15,O=C(O)CCc1nc2nc(-c3ccco3)cc(C(F)(F)F)n2n1 [CBK286889],136.199%
16,O=C(Nc1cccc(-c2nnco2)c1)C1CCCCC1 [CBK296662],155.943%
17,COc1cccc(NC(=O)C2CCCCC2C(=O)O)c1 (stereo not shown) [CBK262410],108.566%
18,CC(C)NC(=O)CN1CCC(N(C)Cc2cccc(C(F)(F)F)c2)CC1 [CBK305429],104.162%
19,C/C(=N\NC(=N)N)C(F)(F)F [CBK023019G],145.149%
20,COCC(C)NC(=O)Cn1c(-c2ccc(F)cc2)cc2cccnc21 (stereo not shown) [CBK284863],119.339%
21,COC(=O)c1c(NC(=S)Nc2cnccn2)sc2c1CCC(C)C2 (stereo not shown) [CBK266893],140.478%
22,CC(C)C(=O)N1CCC(Cn2nc(-c3ccccc3)ccc2=O)CC1 [CBK284114],119.785%
23,CN(C)c1ccc(/C=C/c2noc(-c3ccccc3O)n2)cc1 [CBK268438],141.422%
24,COc1ccc(OC)c(N/C=C(/C#N)c2nc(-c3cc4c(ccc5ccccc54)oc3=O)cs2)c1 [CBK262991],110.279%
25,Cn1nc(-c2ccccc2)cc1[C@H]1CN2CC[C@H]1C[C@@H]2CNC(=O)N1CCOCC1 [CBK289094],102.62%
26,COc1ccc(CCCC(=O)Nc2cc3cccnc3c(Br)n2)cc1 [CBK119486],104.359%
27,CCn1cc(-c2cncn2CCCn2ccnc2C(C)C)cn1 [CBK282244],122.921%

row,SMILES,% of control remaining
1,NC(=O)c1nnc2ccc(Cl)cc2c1N [CBK026161],142.579%
2,COCCn1c(=O)n(Cc2ccccc2)c2cccnc21 [CBK283964],121.801%
3,O=C1c2ccccc2C(=O)N1CSc1nnc(SCN2C(=O)c3ccccc3C2=O)s1 [CBK263694],117.678%
4,O=C(c1cccc(-c2cncc(-c3ccc(O)cc3)n2)c1)N1CCOCC1 [CBK123796],100%
5,O=C(O)COc1ccc(/C=N/n2cnnc2)cc1Cl [CBK263902],113.736%
6,OC1(c2ccccc2)CCN(Cc2ccccc2-n2cccn2)C1 (stereo not shown) [CBK282795],124.984%
7,Cc1cccc(-c2nc3ccc(NC(=O)CCC(=O)O)cc3o2)c1 [CBK269773],112.443%
8,Cc1ccc(CN(C)CC(=O)Nc2cc(C(F)(F)F)ccc2Cl)o1 [CBK306085],116.337%
9,CC(=O)Nc1ccc(-c2ccc(C(=O)N3CCN(C4CCN(C)CC4)CC3)cn2)cc1 [CBK158824],118.378%
10,Cc1ccc(S(=O)(=O)NC[C@H]2C[C@@H]3CC[N@]2C[C@@H]3CN2CCOCC2)cc1 [CBK288758],119.191%
11,O=C(Nc1cccc2[nH]ccc12)c1ccoc1 [CBK159659],115.986%
12,Cc1nn(C)cc1-c1cc(C(=O)Nc2ccccc2C2CC2)on1 [CBK281412],117.192%
13,COc1cncc(C(NC(=O)c2ccn3nnnc3c2)[C@H]2C[C@@H](O)C2)c1 (stereo partly shown) [CBK306686],101.607%
14,CC(C)CC(=O)N1CCC(c2nnc3n2CCCCC3)CC1 [CBK284629],152.372%
15,CS(=O)(=O)c1ccc(Cn2ccnc(N3CCN(C(=O)Cc4cccs4)CC3)c2=O)cc1 [CBK153773],122.142%
16,O=C(Cc1ccc2c(c1)CCCO2)Nc1c(OCCn2cccn2)ccc2ccccc12 [CBK285679],123.43%
17,O=C(Cc1ccc(F)cc1)N1CCC(c2cccc(Cc3ccccc3F)n2)CC1 [CBK286213],74.3629%
18,Cc1cccc(N2C(=O)c3ccc(C(=O)c4ccc5c(c4)C(=O)N(c4cccc(C)n4)C5=O)cc3C2=O)n1 [CBK263069],103.487%
19,N#CCCCN1CCC2(CC1)OCCc1c2[nH]c2ccc(Br)cc12 [CBK040105],114.561%
20,COc1ccc(-c2nn(CN3CCC(C(N)=O)CC3)c(=S)n2-c2ccccc2)cc1OC [CBK264299],133.343%
21,CCOC(=O)N1CCC(NS(=O)(=O)c2ccc(F)cc2)CC1 [CBK045455],100.231%
22,IC1COC(c2ccccc2)OC1 (stereo not shown) [CBK021109],89.7919%
23,Cc1ccc(CC(=O)N2CCCC2c2n[nH]cc2-c2ccncc2)cc1 (stereo not shown) [CBK283424],121.839%
24,O=C(CSCc1c(F)cccc1Cl)NCc1ccccc1Cl [CBK269155],131.141%
25,Cc1ccc(C(O)CN2CCC(O)(c3ccccc3F)CC2)cc1 (stereo not shown) [CBK283310],156.108%
26,Cc1cc(O)cc(=O)n1Cc1ccccn1 [CBK291159],115.209%
27,CCCC(=O)N1CCCC([C@@H]2C[C@H](C(F)F)n3nc(C)cc3N2)C1 (stereo partly shown) [CBK284721],163.187%

row,SMILES,% of control remaining
1,CC1(C)[C@H](Cc2cc(CN3CCOCC3)on2)C[C@@H]1NC(=O)C1CC1 [CBK289246],122.815%
2,Cn1ccnc1Sc1ncccc1C(F)(F)F [CBK093759],119.243%
3,N#Cc1cccc(C(=O)N2CCCN(Cc3ccc(Cl)cc3)CC2)c1 [CBK305323],105.4%
4,O=C(CCc1ccccc1)N/N=C/c1cc2c(cc1[N+](=O)[O-])OCO2 [CBK261221],88.5479%
5,Cc1cc(C)n2c(SCC(=O)c3ccccc3)nnc2n1 [CBK265378],123.007%
6,Cc1nc(CN2CCN(C(=O)C3C4CCCCC43)CC2)cs1 (stereo not shown) [CBK281607],136.394%
7,C=CCO[C@@H]1C[C@H]2C(=O)N3CCN(C(=O)NC4CCCCC4)C[C@H]3C(=O)N2C1 [CBK289619],131.856%
8,COc1ccc(C(=O)N/C(=C/c2ccc([N+](=O)[O-])cc2)c2nc3ccc(C(F)(F)F)cc3[nH]2)cc1OC [CBK263199],84.8907%
9,CCOc1ccc(-n2c(SCc3ccc(Br)cc3)nnc2-c2ccncc2)cc1 [CBK266017],140.235%
10,NC(=O)C1(Cc2ccc(-c3ccccc3)cc2)CCN(C(=O)CCc2ccccc2)CC1 [CBK285772],73.1588%
11,c1ccc2c(CNCc3ccc4c(c3)OCO4)c[nH]c2c1 [CBK262159],118.76%
12,Cc1ccccc1C(=O)NCC(=O)Nc1ccc(Cl)nc1 [CBK091335],117.663%
13,CC(=O)Nc1ccc(Cc2nc(C3CC3)no2)cc1 [CBK305197],113.857%
14,COC1C(O)C(CO)OC1n1cc(F)c(=O)[nH]c1=O (stereo not shown) [CBK201253],140.461%
15,NCCc1c[nH]c2ccc(OCC(=O)O)cc12 [CBK265853C],192.072%
16,O=c1[nH]c(=O)c2cc(S(=O)(=O)NCC3(c4ccccc4)CCCC3)ccc2[nH]1 [CBK286387],108.427%
17,CN(C)CCCNC(=O)Nc1cccc(-c2nc(-c3ccc(C#N)cc3)cnc2N)c1 [CBK116287],33.1355%
18,COCCNc1nc(-c2ccc(C(C)=O)s2)ccc1C(=O)N(C)CCN(C)C [CBK105914],89.73%
19,COc1c(O)ccc(/C=N/NC(=O)COc2c(Br)cc(Br)cc2Br)c1[N+](=O)[O-] [CBK261957],94.9878%
20,Cn1nc(NC(=O)CC(C)(C)CC(=O)O)c2c(F)cccc21 [CBK057122],119.236%
21,CCc1ccc(CCC(=O)N2CCN(S(=O)(=O)c3sc(C(=O)O)c(C)c3C(=O)O)CC2)cc1 [CBK297138],113.797%
22,Nc1ncc(-c2cncnc2)nc1NC1CC1 [CBK063869],172.943%
23,Cc1ccc(C)c(NC(=S)NCCc2ccc(S(N)(=O)=O)cc2)c1 [CBK264879],101.732%
24,COC(=O)c1ccc(OCc2nnn[nH]2)cc1 [CBK269544],141.243%
25,CC1Cc2cc(C(O)CN3CCCCC3)ccc2N1C(=O)C1CC1 (stereo not shown) [CBK283144],125.57%

# Four entries already listed, arranged by count of non-hydrogen atoms, low to high:
row,SMILES,% of control remaining
2,Cn1ccnc1Sc1ncccc1C(F)(F)F [CBK093759],119.243%
6,Cc1nc(CN2CCN(C(=O)C3C4CCCCC43)CC2)cs1 (stereo not shown) [CBK281607],136.394%
1,CC1(C)[C@H](Cc2cc(CN3CCOCC3)on2)C[C@@H]1NC(=O)C1CC1 [CBK289246],122.815%
17,CN(C)CCCNC(=O)Nc1cccc(-c2nc(-c3ccc(C#N)cc3)cnc2N)c1 [CBK116287],33.1355%

# Reference: publication PMC12040169 (PLOS Biology, 2025)
